# Measured values as given in PubChem BioAssay AID2551 (National Center for Advancing Translational Sciences (NCATS), 2010).
# Protein sequences, listed by entry. Tags and fused reporters are not part of them. Lines headed by an entry give the natural chain unless they say otherwise; changes in a name come on top.
# UniProt P51450: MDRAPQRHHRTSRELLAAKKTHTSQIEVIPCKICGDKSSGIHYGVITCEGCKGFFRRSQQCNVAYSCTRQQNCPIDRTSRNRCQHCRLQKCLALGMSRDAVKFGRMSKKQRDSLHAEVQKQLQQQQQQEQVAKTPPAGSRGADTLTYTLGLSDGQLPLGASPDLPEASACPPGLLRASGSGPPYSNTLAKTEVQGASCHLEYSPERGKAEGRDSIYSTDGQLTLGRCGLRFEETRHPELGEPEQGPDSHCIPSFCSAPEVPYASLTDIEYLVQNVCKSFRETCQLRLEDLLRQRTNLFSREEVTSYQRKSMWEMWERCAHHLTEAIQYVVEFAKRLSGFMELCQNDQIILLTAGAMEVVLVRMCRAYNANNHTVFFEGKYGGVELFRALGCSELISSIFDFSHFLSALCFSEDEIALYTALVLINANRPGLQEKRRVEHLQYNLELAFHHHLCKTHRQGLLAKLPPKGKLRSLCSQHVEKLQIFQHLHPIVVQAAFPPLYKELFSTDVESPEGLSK
# The campaign covered roughly 310,000 compounds. About 17,000 (5.5%) were called active. This list was built around the results that the source calls inconclusive (neither active nor inactive); the mix of calls is not that of the screen. Calls follow the shape of the dose curve; as a rule, active = well fitted inhibition curve with a large enough effect; inconclusive = small, poorly fitted or top-dose-only effect, or effect the other way; inactive = no such curve, though single readings can be large or run the other way. Potencies beside an inconclusive call are fits to weak or partial responses and may not hold up.
# Molecular target: Nuclear receptor ROR-gamma (Mus musculus) (UniProt P51450)
# Experiment: qHTS for inhibitors of ROR gamma transcriptional activity; also: nearly all actives have a fitted effect of over 60% in size
# Settings: Drosophila S2 Gal4-RORgamma UAS-luciferase reporter, 20 h; activity change, negative = inhibition: at 53.6 µM (top of the series)
# Outline: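 Drosophila S2 cells stably expressing Gal4-DBD/mouse RORγ fusion under metallothionein promoter plus UAS-luciferase; compound 1 h, then 700 uM CuSO4 induction for 20 h at ambient temperature; inhibition read as reduced luminescence.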
# % is scaled to controls: 0 for no effect and ±100 for the full control effect; potency is read from the fitted curve at half-maximal effect.
Structure (SMILES),"activity change, negative = inhibition",Potency
CCc1c(C)c2cc(Cl)c(O)c(CN3CCCC3)c2oc1=O,inactive: 0.741%,–
COC(=O)c1c(-c2ccco2)csc1NC(=O)C1CC=CCC1C(=O)O (configuration not stated),inactive: -2.61%,–
O=C(NCCC1=CCCCC1)c1ccc(CN2CCOCC2)cc1,–,"inconclusive: 7.08 µM [inhibitor, full curve, poor fit]"
O=[N+]([O-])c1ccc(Oc2ccc(S(=O)(=O)N3CCCCC3)cc2)cc1,–,"inconclusive: 35.5 µM [activator, single point]"
N/C(=N\OC(=O)c1ccc(Cl)c(Cl)c1)c1ccccn1,–,"inconclusive: 14.1 µM [inhibitor, single point]"
Cc1ccc(/C=N/n2c(C3CCCCC3)n[nH]c2=S)s1,–,active: 3.16 µM
Cc1ccc(/C=C(\NC(=O)c2ccc(C)cc2)c2nc(=S)[nH][nH]2)cc1,–,"inconclusive: 35.5 µM [inhibitor, single point]"
COc1ccc2c(c1)C1CC(C)(NC(=O)C1S(=O)(=O)c1ccc(F)cc1)O2 (configuration not stated),–,"inconclusive: 10 µM [activator, single point]"
Cn1c(=O)c2c(nc(Oc3cccc(O)c3)n2C)n(C)c1=O,inactive: 6.75%,–
CC1=CC(=C2C(=O)c3ccccc3C2=O)C=C(C)O1,–,"inconclusive: 0.631 µM [activator, full curve, poor fit]"
Cc1ccc(S(=O)(=O)Nc2ccc(NC(=O)Nc3cccc(C(F)(F)F)c3)cc2)cc1,–,"inconclusive: 10 µM [activator, single point]"
CCOC(=O)c1csc(NC(=O)CSc2nnnn2-c2ccc3c(c2)OCCO3)n1,–,"inconclusive: 12.6 µM [activator, partial curve]"
Cc1nc2sc(C(=O)O)c(N)c2c2c1COC(C)(C)C2,–,"inconclusive: 1.12 µM [inhibitor, full curve, poor fit]"
Cc1ccc(C)c(NC(=S)N2CCN(c3ccccn3)CC2)c1,–,active: 12.6 µM
O=C(NCc1ccccn1)[C@@H]1C[C@H]1[C@@H](NP(=O)(c1ccccc1)c1ccccc1)c1ccccc1,–,"inconclusive: 17.8 µM [activator, single point]"
Cc1ccc(Cc2ccc(C(=O)NNC(N)=S)o2)cc1,–,active: 10 µM
CSc1nsc(SC)c1C(=O)NCCNS(=O)(=O)c1ccc(C)cc1,inactive: -8.59%,–
COc1cc2[nH]c(=S)nc(NCc3cccnc3)c2cc1OC,inactive: 0.551%,–
Cc1ccccc1CSCC(=O)N1CCN(c2ccccc2)CC1,inactive: 41.5%,–
CC1(C)CC[C@]2(C(=O)O)CC[C@@]3(C)C(=CCC4[C@@]5(C)CCC(O)C(C)(C)C5CC[C@@]43C)C2C1 (some centres not stated),inactive: 12.9%,–
O=C(Nc1ccccc1N1CCCCC1)c1cccc(OC(F)F)c1,inactive: 3.04%,–
OC(COc1ccccc1CNCc1cccnc1)CN1CCc2ccccc2C1 (configuration not stated),inactive: -0.264%,–
Cc1ccccc1CSCCNC(=O)c1ccc(Cl)c(S(=O)(=O)N2CCOCC2)c1,–,"inconclusive: 11.2 µM [activator, partial curve, poor fit]"
Cc1csc(NC(=O)c2ccc(Cl)cc2[N+](=O)[O-])n1,–,"inconclusive: 35.5 µM [inhibitor, single point]"

# Arranged by molecular weight (ascending): some entries from above.
Structure (SMILES),"activity change, negative = inhibition",Potency
CCc1c(C)c2cc(Cl)c(O)c(CN3CCCC3)c2oc1=O,inactive: 0.741%,–
CC1(C)CC[C@]2(C(=O)O)CC[C@@]3(C)C(=CCC4[C@@]5(C)CCC(O)C(C)(C)C5CC[C@@]43C)C2C1 (some centres not stated),inactive: 12.9%,–
O=C(NCc1ccccn1)[C@@H]1C[C@H]1[C@@H](NP(=O)(c1ccccc1)c1ccccc1)c1ccccc1,–,"inconclusive: 17.8 µM [activator, single point]"

# Following part

Structure (SMILES),"activity change, negative = inhibition",Potency
Cc1nc2ccccn2c1-c1ccnc(=S)[nH]1,–,"inconclusive: 35.5 µM [inhibitor, single point]"
Cc1ccc(-n2nc3c(c2NC(=O)c2cccs2)CS(=O)(=O)C3)c(C)c1,–,"inconclusive: 3.55 µM [inhibitor, full curve]"
CN(C)c1ccc(/C=N/NC(=O)CNC(=O)c2ccncc2)cc1,–,"inconclusive: 5.62 µM [inhibitor, single point]"
COc1ccc(Nc2nc(S(=O)(=O)c3ccc(C)cc3)c(Cl)s2)cc1,–,"inconclusive: 20 µM [activator, partial curve]"
CCOc1ccc2[nH]c3c(N4CCc5ccccc5C4)ncnc3c2c1,–,"inconclusive: 11.2 µM [inhibitor, partial curve, poor fit]"
O=C(/C=C/c1ccc(Cl)cc1Cl)NC(=S)Nc1ccccn1,–,active: 2.82 µM
O=C(Nc1ccc(Cl)cc1)OCCN1CCN(Cc2ccccc2)CCC1=O,–,"inconclusive: 39.8 µM [activator, single point]"
Cc1onc(-c2ccccc2)c1C(=O)Nc1nnc(CC(C)(C)C)s1,–,"inconclusive: 15.8 µM [inhibitor, partial curve, poor fit]"
CCC(=O)NC1CCN(C(=S)NC)CC1,inactive: -23.5%,–
CCCCC(=O)Nc1cccc(NC(=S)NC(=O)Cc2ccccc2)c1,–,"inconclusive: 12.6 µM [inhibitor, single point]"
COc1ccc(NC(=O)CC2C(=O)N(C)C(=S)N2CCc2ccccc2)cc1 (configuration not stated),–,"inconclusive: 17.8 µM [activator, partial curve]"
COc1cc(C(=O)/C=C/c2cccnc2)ccc1O,–,active: 10 µM
Cc1ccc(Cl)cc1N1CCN(C(=O)c2ccc(NS(=O)(=O)c3c(C)noc3C)cc2)CC1,–,"inconclusive: 14.1 µM [activator, single point]"
Cc1ccccc1OC(=O)C1C(c2ccccc2)C(C(=O)O)C1c1ccccc1 (configuration not stated),inactive: 25.2%,–
COc1ccccc1CN(Cc1cc2cc(C)ccc2[nH]c1=O)Cc1nnnn1Cc1ccco1,–,"inconclusive: 35.5 µM [activator, single point]"
CC(C)c1ccc(NC(=O)Nc2cnccn2)cc1,–,"inconclusive: 1.26 µM [activator, full curve]"
Oc1ccc(NCc2cccc(OCc3ccc(F)cc3)c2)cc1,–,active: 10 µM
CC1CCN(CC(=O)Nc2cc(C(F)(F)F)ccc2Cl)CC1,–,"inconclusive: 35.5 µM [activator, single point]"
O=C(O)c1ncn(Cc2ccccc2)c1C(=O)O,inactive: -0.638%,–
CCc1n[n+](CC(=O)c2ccccc2)c(N)s1,–,active: 2.82 µM
Cc1c(Cl)cccc1NC(=S)N1CCCCCC1,–,active: 14.1 µM
CCOC(=O)c1c(NC(=O)/C=C/C(=O)O)sc(C)c1-c1ccc(C(C)(C)C)cc1,–,active: 11.2 µM
COCCn1cnc2c1c(=O)n(CC(=O)OCC(=O)NCC(F)(F)F)c(=O)n2Cc1ccccc1,inactive: -41.8%,–
